Library screen at single concentrations

Measurements from “University of Dundee, Small-Polar-MMV Screening Library” (2021), ChEMBL document CHEMBL3988442.

Results are given as percent effect. The controls that fix the scale are not given in the record; negative values are as filed. Compounds were drawn at random from those tested, without regard to their results. Two or more numbers in one place are separate tests of the same structure; such repeats can differ widely. A dash means the value is not listed here; it may have been measured.

T. brucei: 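Whole-parasite assay of Trypanosoma brucei over 72 hours; the read-out is not stated. Compounds at 30 µM. Higher reads as stronger inhibition (inferred: compounds with an IC50 in retests scored well above the rest). Values scatter widely below zero; nearly all retest evidence comes from the higher of the two concentrations used. About 64,000 compounds were tested under these conditions; 1.5% (about 940) showed 50% or more at least once.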
Leishmania in macrophages: 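Cell assay of Leishmania donovani living inside macrophages; the read-out is not stated. Concentration: 30 µM. The record gives no direction; compounds that gave an IC50 in retests scored well above the rest, so higher reads as stronger inhibition. About 69,000 compounds were tested under these conditions; 1.5% (about 1,000) showed 50% or more at least once.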
Toxoplasma: 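Assay of Toxoplasma gondii numbers, read through their beta-galactosidase reporter with a colour substrate. Concentration: 10 µM. The record gives no direction; the compounds picked for IC50 retests had high values, so higher reads as fewer parasites. Of about 67,000 compounds tested this way, about 260 (0.38%) reached 50% or more in at least one test.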

structure | T. brucei | Leishmania in macrophages | Toxoplasma
Cn1nnc2c1CCN(Cc1ccoc1)C2COCc1ccccc1.O=C(O)C(F)(F)F (centres unmarked) | -22.08 | 10.65 | -6.592
CCC(C)(NCc1ncc(C(C)C)o1)c1nccs1 (centres unmarked) | -30.62 | -16.02 | 2.949
FC(F)CN1CCOC(Cn2cccn2)C1 (centres unmarked) | - | 20.97 | 3.907
NC(=O)c1ccc(NC(=O)Cn2cc(-c3ccccc3)ncc2=O)cc1 | 2.637 | -5.574 | -9.674
CCOc1nnc(CN2CCN(CCOC)CC2)s1 | -1.786 | -3.312 | 4.884
COc1cccc(CNC(=O)CN2CCCC(Cn3cncn3)C2)c1 (centres unmarked) | 7.776 | 16.07 | 10.82
c1ccc(CNc2ccccc2N2CCCC2)nc1 | -30.84 | -21.98 | 11.66
Cc1ccc(C(=O)N2CCC3(CC2)CN(c2ccccn2)CCO3)cc1.O=C(O)C(F)(F)F | -10.94 | 11.88 | -10.18
CC(C)c1nc2c(n1C)CCN(Cc1nc(-c3ccoc3)no1)C2 | -0.2084 | -3.531 | 9.541
Cc1c(CN2Cc3nccn3CC2c2ccccc2)cnn1C (centres unmarked) | -14.83 | -13.27 | 8.2
CCc1nnc(Nc2cc(C)nc(C3CN(C(=O)C(C)C)CCO3)c2)s1 (centres unmarked) | 27.14 | -14.92 | 45.38
Cc1cc(C)nc(C2CCN(C(=O)CCn3ncc4ccccc43)C2)n1 (centres unmarked) | -5.109 | 9.733 | 3.866
CC(C)c1nn(C)c(N2CCOCC2)c1CNC(C)c1cccs1 (centres unmarked) | 26.52 | 29.27 | -0.8161
[H][C@]12CCN(S(=O)(=O)c3ccc(F)cc3)C[C@@]1([H])OCCN(C(C)=O)C2 | -46.93 | -7.669 | 9.515
CC(C)NC(=O)N1CCC(n2ccc(C(F)(F)F)n2)CC1 | 40.49 | 2.864 | -2.627
Cc1ncsc1C(=O)N1CCc2[nH]nc(-c3ccc4c(c3)OCO4)c2C1 | -226.6 | -31.16 | -8.617
Clc1ccccc1-c1nnc(CNCCn2cccn2)o1 | - | 9.126 | -21.32
CCc1nc(C)c(CC(=O)N2CCC3(CC2)OCCCC3OC)c(=O)[nH]1 (centres unmarked) | -37.31 | 8.536 | 6.358
CC(=O)Oc1ccnc(C(F)(F)F)c1C(C)=O | 13.18 | 14.36 | -1.351
CC(Cn1cc(Br)cn1)C(=O)Nc1ccn(C)n1 (centres unmarked) | - | 2.971 | 11.74
CCc1nc(C)c(C(C)N(C)CCc2ccncc2)s1 (centres unmarked) | -23.09 | -7.929 | -3.78
CC(Cn1cccn1)NC(=O)N1CCN(Cc2ccco2)CC1 (centres unmarked) | -11.32 | 24.13 | -2.283
CC1COCCN1Cc1nc(Cc2ccccc2)no1 (centres unmarked) | -24.35 | 2.671 | -9.686
O=C(O)C(F)(F)F.[H][C@]12CCN(C(=O)c3cscn3)C[C@@]1([H])CN(Cc1cnn(C)c1)C2 | -43.92 | -44.94 | -5.547
O=C(c1cocn1)N1CCC[C@]2(C[C@@H](Oc3ncccc3F)CO2)C1 | -3.445 | 26.64 | -1.997
[H][C@@]12CCN(C(=O)CCCn3nc(C)cc3C)C[C@@]1(CO)CCCN2 | 7.945 | 36.85 | 1.522
Cc1ccc(C(=O)N2CCC3(CC2)CC(c2cnn(C)c2)CO3)cn1.O=C(O)C(F)(F)F (centres unmarked) | -1198 | 5.48 | -24.41
Cc1nn(C)c(C)c1CCC(=O)Nc1cn(C)c(=O)n(C)c1=O | -0.3509 | 0.4551 | -23.09
CCC(=O)Nc1ncn(Cc2cccnc2)n1 | -7.226 | -38.35 | 9.508
O=C(O)C(F)(F)F.[H][C@@]12CCCO[C@]1([H])[C@H](NC(=O)c1nccn1C)CN2Cc1ccc(F)cc1 | -64.82 | 16.93 | -10.7
Cc1cc(C(=O)N2CCCC(n3cncn3)C2)c(C)n1CC1CC1 (centres unmarked) | - | -2.148 | -20.73
CCN(Cc1ccncc1)c1cc(C2CCN2C(C)=O)nc(C)n1 (centres unmarked) | 6.176 | 9.614 | -5.954
O=C(O)C(F)(F)F.O=C(O)C(F)(F)F.[H][C@]12CCC[C@@]1(COCC1CC1)CN(Cc1ccccn1)C2 | -29.87 | 6.394 & 15.02 | 4.22
Cc1nnc(CN(Cc2cccc(Cl)c2)C(C)C)o1 | -13.2 | 21.54 | -7.94
O=C(O)C(F)(F)F.[H][C@]12CCC[C@@]1(COCc1ccncc1)CN(C(=O)c1ccccc1F)C2 | -44.55 | 0.9881 & 13.53 | -4.966
Cc1nc(C)n(C2CCCN(C(=O)c3c(C)nn4cccnc34)C2)n1 (centres unmarked) | -5.244 | -23.38 | -21.1
C[C@@H]1CN(CCC(=O)N(C)Cc2ccccc2)C[C@@]1(O)C1CCC1 | - | 54.72 | -11.55
COc1ccnc(N2CCN(C(=O)c3cnc(C4CC4)s3)CC2)n1 | 9.082 | -1.03 | 4.348
O=C(O)C(F)(F)F.O=C(O)C(F)(F)F.O=C(O)CN1CCCC2(CCN2Cc2cccc(F)c2)C1 (centres unmarked) | -49.81 | -0.8696 | -0.3473
O=C(C1CCC1)N1CCC2(COCc3cnc(-c4cccnc4)nc32)C1 (centres unmarked) | -35.76 | -10.99 | 7.294
Cc1cc(C(=O)N2CCn3cc(CN4CCCC4)nc3C2)no1 | -964.4 | 15.81 | -2.213
[H][C@]12CCC(=O)N(c3ccccc3)[C@@]1([H])CCN2C(=O)C1CC=CC1 | -12.92 | 4.252 | -1.652
Cc1ccc(C2COCCN2C(=O)c2ccc(C#N)cc2)o1 (centres unmarked) | 9.275 | 12.63 | -9.767
COc1ccc(NC(=O)CCC2CCCN(Cc3ncon3)C2)c(C)c1 (centres unmarked) | -52.65 | 27.74 | -4.075
O=C(NCCn1ccnc1)N1CCN(Cc2cccs2)CC1 | -3.161 | 13.96 | 2.67
CC(C)=CCCN1CCN(C)C2(CCC(=O)N(C)CC2)C1 (centres unmarked) | - | 9.26 | -9.413
Cc1cccc(C)c1OCCNC(=O)C(C)n1cncn1 (centres unmarked) | - | 2.746 | -6.02
O=C(c1cn(CC(=O)N2CCCC2)c2ccccc12)C1CC1 | -5.771 | 7.453 | 3.902
COc1ccc(-c2noc(Cn3cc4c(n3)CCC4)n2)c(OC)c1OC | -7.107 | 13.89 | -8.428
COCCN1CCC(CNC(=O)C2(C#N)CCCC2)CC1 | -33.97 | -5.047 | -3.361
COCc1noc(C2(c3ccc(Br)cc3)CCOCC2)n1 | -10.81 | 22.48 | -3.231
Cn1ccnc1CN1C[C@@H](CN2CCCCCC2)[C@@H](CO)C1 | 22.09 | -12.75 | 11.67
CCN(Cc1cc(Cl)c(O)c(OC)c1)Cc1nc(COC)no1 | -8.713 | 25.87 | 24.9
c1cnn(CCNCc2cnc(N3CCCC3)nc2)c1 | -11.13 | 36.96 | -28.95
COCC(=O)NC[C@]1(O)CN(Cc2ccc3c(c2)OCCO3)C[C@H]1O | -5.728 | 25.49 | -12.1
Cc1c(F)cccc1S(=O)(=O)NCC(C)(C)CC(C)O (centres unmarked) | 10 | 15.57 | -10.16
CC1CCN(S(=O)(=O)N2CCCN(CC3CCCO3)CC2)CC1 (centres unmarked) | -6.785 | -4.872 | 6.627
NS(=O)(=O)CCNC(=O)c1cc2ccccc2nc1N1CCCC1 | 6.603 | -18.12 | 0.7955
CCCn1ccnc1SCCNS(=O)(=O)c1ccccc1 | -16.52 | 4.786 | -1.121
CS(=O)(=O)N1CCC(NC(=O)COc2ccccc2Cl)CC1 | - | 10 | -3.439
CC(=O)NCC(=O)N1CCC2(CC1)C(=O)N(CC1CC1)c1ccccc12 | -5.541 | -3.522 | -31.18
NC(=O)c1ccc(N2CCCCC2)c(NC(=O)c2ccc(Br)cc2)c1 | -4.63 | 14.26 | -0.3277
CCN1CCCC(C)(C(=O)NCCc2n[nH]c(=O)[nH]2)C1 (centres unmarked) | -33.24 | 2.954 | 10.42
O=C(NCC1CCCO1)C1CCN(Cc2nc(C3CC3)no2)CC1 (centres unmarked) | -16.13 | 6.113 | 2.781
CN(C(=O)C1CCN(Cc2cnc3ccccn23)CC1)c1ccccc1 | -20.5 | 30.84 | 1.606
CN(Cc1ccc([S+](C)[O-])cc1)c1ccc(Cl)cn1 (centres unmarked) | 20.52 | -15.96 | -10.06
CC(C)CCN1C2(CCN(C(=O)C3(C)CC3)C2)c2ccccc2S1(=O)=O (centres unmarked) | -6.33 | 21.35 | 6.165

Some entries from above, unchanged:

| structure | T. brucei | Leishmania in macrophages | Toxoplasma |
|---|---|---|---|
| `CC(Cn1cccn1)NC(=O)N1CCN(Cc2ccco2)CC1` (centres unmarked) | -11.32 | 24.13 | -2.283 |
| `CC1COCCN1Cc1nc(Cc2ccccc2)no1` (centres unmarked) | -24.35 | 2.671 | -9.686 |
| `Cn1nnc2c1CCN(Cc1ccoc1)C2COCc1ccccc1.O=C(O)C(F)(F)F` (centres unmarked) | -22.08 | 10.65 | -6.592 |
| `Cc1cc(C(=O)N2CCn3cc(CN4CCCC4)nc3C2)no1` | -964.4 | 15.81 | -2.213 |
| `COCc1noc(C2(c3ccc(Br)cc3)CCOCC2)n1` | -10.81 | 22.48 | -3.231 |